Laboratory results: paper PMC12199426
These are yes or no findings as the source states them, for the method shown. In cells and extracts the contact can be indirect. A result given as binding can be weak or reduced; the word gives no strength. Tags and fused reporters may be left off the sequences shown.

By UniProt entry, the sequences of proteins in these tests, tags left out. Where a name states a change or a piece, a line headed by the entry shows the natural chain unless it says otherwise.
UniProt Q9D287: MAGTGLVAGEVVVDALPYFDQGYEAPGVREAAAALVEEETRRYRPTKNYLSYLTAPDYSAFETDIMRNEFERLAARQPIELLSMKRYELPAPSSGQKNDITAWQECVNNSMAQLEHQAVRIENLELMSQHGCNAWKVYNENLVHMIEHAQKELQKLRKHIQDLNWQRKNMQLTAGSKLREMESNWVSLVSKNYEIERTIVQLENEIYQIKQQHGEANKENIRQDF

Experiments:
Bcas2 ΔCC1 with FLAG tag = Bcas2 ΔCC1 with FLAG tag (UniProt Q9D287); assay: co-IP; 293T cells transfected with FLAG-tagged Bcas2 (full length or coiled-coil deletions) and SRSF7-HA; IP by the FLAG tag
Bcas2 ΔCC2 with FLAG tag = Bcas2 ΔCC2 with FLAG tag (UniProt Q9D287); assay: as above

B1: SRSF7-HA (protein, UniProt Q8BL97 1-267)
chain: MRSSARGRPLQAATAFFLSLFFFLRRFERGFWLWGGDSETKVYVGNLGTGAGKGELERAFSYYGPLRTVWIARNPPGFAFVEFEDPRDAEDAVRGLDGKVICGSRVRVELSTGMPRRSRFDRPPARRPFDPNDRCYECGEKGHYAYDCHRYSRRRRSRSRSRSHSRSRGRRYSRSRSRSRGRRSRSASPRRSRSVSLRRSRSASLRRSRSGSIIGSRYFQSRSRSRSRSRSISRPRSSRSKSRSPSPKRSRSPSGSPHRSASPERMD
With B1 the binding (Bcas2 ΔCC1 with FLAG tag) was “binds weakly” and the binding (Bcas2 ΔCC2 with FLAG tag) was “binds weakly”.
